Earlier results as cited in patent US20180072739A1, “CO-CRYSTALS OF A BRUTON'S TYROSINE KINASE INHIBITOR” (Pharmacyclic LLC, priority 2015, published 2018).
Read-outs that look alike come from different tables or passages of the source. At least one structure is not confirmed: it was looked up by name or label, or the drawing left a doubt.

Tested on: OCI-Ly10
Conditions: cited from earlier work

For C=CC(=O)N1CCC[C@@H](n2nc(-c3ccc(Oc4ccccc4)cc3)c3c(N)ncnc32)C1 [Compound 1, 1-((R)-3-(4-amino-3-(4-phenoxyphenyl)-1H-pyrazolo[3,4-d]pyrimidin-1-yl)piperidin-1-yl)prop-2-en-1-one], the EC50 (OCI-Ly10, continuous exposure, read-out: EC50 continuous exposure, growth of OCI-Ly10) is listed as 10 nM and the EC50 (read-out: EC50 1 hour pulse, growth of OCI-Ly10, OCI-Ly10, 1 hour pulse) is listed as 50 nM.
